Reference: patent publication US10821195B2, “Compositions for therapeutics, targeted PET imaging and methods of their use” (Memorial Sloan Kettering Cancer Center, priority 2015, dated 2020)
Some entries share one result that the patent states for a list of compounds. At least one structure is not confirmed: it was looked up by name or label, or the drawing left a doubt.

Assay: ^177Lu-HOPO and ^177Lu-DOTA stability in human serum and DME HG media
Assay type: in vitro ADME
Details: over 6 d, 37° C.

Question: With `O=C([O-])CN1CCN(CC(=O)[O-])CCN(CC(=O)[O-])CCN(CC(=O)[O-])CC1.[177Lu+3].[H+]` [^177Lu-DOTA] as the compound, how does the “complex remaining intact in cell culture media (DME HG)” value read?
Answer: Greater than 95%

Question: What about the “complex remaining intact in human serum” value of the same compound?
Answer: Greater than 95%
